In paper PMC10530651, “Mechanisms of Regulation of the CHRDL1 Gene by the TWIST2 and ADD1/SREBP1c Transcription Factors”:
These are yes or no findings as the source states them, for the method shown. Some results given as binding are weak or reduced against the parent protein; the word gives no strength. Sequences can lack the tags named with a protein.

By UniProt entry, the sequences of proteins in these tests, tags left out.
UniProt P15923: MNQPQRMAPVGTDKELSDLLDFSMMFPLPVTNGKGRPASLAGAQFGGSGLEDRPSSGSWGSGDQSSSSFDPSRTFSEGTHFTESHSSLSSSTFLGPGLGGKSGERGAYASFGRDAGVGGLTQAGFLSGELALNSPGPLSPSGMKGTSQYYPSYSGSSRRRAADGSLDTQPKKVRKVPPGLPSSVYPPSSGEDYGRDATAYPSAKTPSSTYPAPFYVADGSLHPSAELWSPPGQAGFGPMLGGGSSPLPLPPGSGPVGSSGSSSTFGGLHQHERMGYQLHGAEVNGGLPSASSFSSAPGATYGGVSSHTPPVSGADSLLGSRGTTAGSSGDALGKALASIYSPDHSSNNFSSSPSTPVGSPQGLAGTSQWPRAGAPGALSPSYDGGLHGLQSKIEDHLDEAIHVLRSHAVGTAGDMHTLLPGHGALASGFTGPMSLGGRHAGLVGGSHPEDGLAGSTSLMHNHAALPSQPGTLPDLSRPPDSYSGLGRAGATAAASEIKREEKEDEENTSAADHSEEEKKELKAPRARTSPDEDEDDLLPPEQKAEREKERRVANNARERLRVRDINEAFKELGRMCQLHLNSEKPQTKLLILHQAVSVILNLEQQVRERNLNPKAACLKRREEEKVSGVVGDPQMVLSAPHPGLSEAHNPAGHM
UniProt Q15672: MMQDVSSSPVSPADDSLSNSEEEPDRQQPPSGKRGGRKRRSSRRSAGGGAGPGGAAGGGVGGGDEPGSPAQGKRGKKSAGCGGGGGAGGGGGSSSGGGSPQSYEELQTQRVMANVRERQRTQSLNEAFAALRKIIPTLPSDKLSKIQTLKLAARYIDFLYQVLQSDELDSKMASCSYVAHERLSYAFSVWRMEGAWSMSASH

Target: E12 (UniProt P15923)
Test: native gel or EMSA; TWIST1, TWIST2 or Q119X plasmid and E12 plasmid combined in one in vitro TnT reaction; products incubated with 32P-labelled CHRDL1 probe #5 in 20 mM HEPES pH 7.9, 60 mM KCl, 1 mM MgCl2, 0.5 mM DTT, 10% glycerol; 6% native polyacrylamide gel at 4 °C; specific (CH2700EA) and non-specific (SP1) oligonucleotide competitors, anti-Myc supershift; heterodimers seen as DNA-bound complexes

Row | binding | Molecule
1 | binds | human TWIST1, Myc-tagged (from UniProt Q15672 1-202)
2 | binds | human wild-type TWIST2, N-terminally Myc-tagged (protein, UniProt Q8WVJ9 1-160) MEEGSSSPVSPVDSLGTSEEELERQPKRFGRKRRYSKKSSEDGSPTPGKRGKKGSPSAQSFEELQSQRILANVRERQRTQSLNEAFAALRKIIPTLPSDKLSKIQTLKLAARYIDFLYQVLQSDEMDNKMTSCSYVAHERLSYAFSVWRMEGAWSMSASH
3 | binds | TWIST2 Q119X mutant protein, Myc-tagged (domain or fragment, UniProt Q8WVJ9 1-118) MEEGSSSPVSPVDSLGTSEEELERQPKRFGRKRRYSKKSSEDGSPTPGKRGKKGSPSAQSFEELQSQRILANVRERQRTQSLNEAFAALRKIIPTLPSDKLSKIQTLKLAARYIDFLY
